US20140073761A1 (priority 2007, published 2014)

Test: general procedure: Fmoc solid-phase peptide synthesis; H-Cys(4-methoxytrityl)-2-chlorotrityl-Resin (loading 0.56 mmol/g); Fmoc-AA-Wang resin; PyBOP, DIPEA
Details: conjugation step
“EC0258 (Tris-Saccharo-Asp-Folate Vinblastine Conjugate)” gave a conjugation yield of 62%.
With “EC0454 (Tetra-Saccharo-Bis-Asp-Folate Vinblastine Conjugate)” the conjugation yield was 70%.
In the case of “PEPTIDE1{[Pte].[gGlu].D.R.D.D.C}|CHEM1{[SS-DAVLBH]}$PEPTIDE1,CHEM1,7:R3-1:R1$$$V2.0”, the conjugation yield is reported as 70%.
In the case of “PEPTIDE1{[Pte].[gGlu].[Sacch].D.[Sacch].C}|CHEM1{[SS-DAVLBH]}$PEPTIDE1,CHEM1,6:R3-1:R1$$$V2.0”, the conjugation yield is reported as 66%.
With “PEPTIDE1{[Pte].[gGlu].[Sacch].D.[Sacch].D.[Sacch].C}|CHEM1{[SS-DAVLBH]}$PEPTIDE1,CHEM1,8:R3-1:R1$$$V2.0” the conjugation yield was 64%.
“PEPTIDE1{[Pte].[gGlu].[Sacch].D.[Sacch].D.[Sacch].D.[Sacch].C}|CHEM1{[SS-DAVLBH]}$PEPTIDE1,CHEM1,10:R3-1:R1$$$V2.0” showed a conjugation yield of 62%.
Work on “Tetra-Saccharo-Asp-Folate Vinblastine Conjugate” yielded a conjugation yield of 84%.
Work on “Tetra-Saccharo-Bis-α-Glu-Arg-Folate Vinblastine Conjugate” yielded a conjugation yield of 70%.
Substance “Tetra-Saccharo-bis-Asp-Folate Vinblastine Conjugate” has a conjugation yield of 62%.
Work on “Tetra-Saccharo-tris-Glu-Folate Vinblastine Conjugate” yielded a conjugation yield of 61%.

Same assay, conditions: whole synthesis
Work on “Tetra-Homosaccharo-Tris-αGlu-Folate Spacer EC0478” yielded an isolated yield of 52%.
“Tetra-Saccharo-Bis-Asp-Folate Linker EC0452” showed an isolated yield of 40%.
For “Tetra-Saccharo-Bis-α-Glu-Arg-Folate Linker EC0480”, the isolated yield was 33%.
“Tetra-Saccharo-bis-Asp-Folate Linker EC0457” gave an isolated yield of 71%.
In the case of “Tetra-Saccharo-tris-Glu-Folate Linker EC0477”, the isolated yield is reported as 67%.
Substance “Tetra-Saccharoglutamate-Bis-αGlu-Folate Spacer EC0491” has an isolated yield of 51%.

Same assay, conditions: whole synthesis, scale 0.1 mmol
For Tetra-Saccharo-Asp-Folate Linker EC0463, the isolated mass was “˜63 mg” and the isolated yield was 46%.
In the case of “Tetra-Saccharo-Tris-Asp-Folate Linker EC0268”, the isolated mass is reported as “˜100 mg” and the isolated yield is reported as 63%.

Same assay, conditions: whole synthesis, scale 0.56 mmol
With Bis-Saccharo-Folate Linker EC0244 the isolated mass was “˜284 mg” and the isolated yield was 50%.

Some peptides are written in HELM: one residue between dots, names in brackets for other building blocks, links after the first $.
